In the supplement of paper PMC12764529:
± gives the half width of the 95% confidence interval. For many entries, trypsin and chymotrypsin gave values far apart.

Tests used:
[1] = folding stability dG unfold (combined trypsin and chymotrypsin); higher = more stable
Outline: (§1)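 Unfolding free energy was derived, per protease or combined, by relating Bayesian-fitted K50 values from sequencing counts to a sequence-predicted unfolded-state K50 and a shared folded-state K50. The underlying digests exposed cysteine-free mini-proteins under 80 residues, in a PA-tagged cDNA display construct, to trypsin and chymotrypsin at 11 threefold-diluted concentrations and to a no-protease condition. A filter kept only designs with AlphaFold2 dimer inter-PAE above 15.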

[2] = folding stability dG unfold from chymotrypsin proteolysis; higher = more stable
Outline: as §1

[3] = folding stability dG unfold from trypsin proteolysis; higher = more stable
Outline: as §1

Row | Sequence | folding stability dG unfold [1] | folding stability dG unfold [2] | folding stability dG unfold [3]
1 | SAGGSAGGSAGGSMIIRIETKDGKIIEIEIKEDEDKTPEEIAKELAKKYNIKKIEIFEPSAGGSAGGSAGGS [r4_116_TrROS_Hall] | 3.44 ± 0.096 kcal/mol | 3.57 ± 0.062 kcal/mol | 3.27 ± 0.12 kcal/mol
2 | SAGGSAGGSPAPRFTFSLTVTVERTYPTADGSTRTERFTFTVTGTATVAPPAIGPELARTLGESAGGSAGGS [r12_1060_TrMRF] | 3.56 ± 0.14 kcal/mol | 3.982 ± 0.033 kcal/mol | 0.7 ± 0.1 kcal/mol
3 | SAGGSAGGSAGSTVVTEVEVSEELPEGEVIPTTITTETLPTGKVVRVTTPDGTVVSTSSVSAGGSAGGSAGG [r17_274_JUSTAS] | 1.02 ± 0.11 kcal/mol | 1.41 ± 0.1 kcal/mol | -0.702 ± 0.17 kcal/mol
4 | SAGGSAGGSAGEAVLVSTPDGRLVLLVRFPDYVLAVVFDPGGRPRLYRIDPKTGRVELLPSAGGSAGGSAGG [r11_590_TrMRF] | 3.99 ± 0.06 kcal/mol | 4.395 ± 0.036 kcal/mol | 2.18 ± 0.045 kcal/mol
5 | SAGGSAGGSKIKEIEVDPEGGWVQIEIPPNEPPKPLPGIKDVEPNDDRQTITFPVKPGDEIKISAGGSAGGS [r20_37_TrROS] | 1 ± 0.17 kcal/mol | 1.47 ± 0.057 kcal/mol | -0.943 ± 0.28 kcal/mol
6 | SKMIEIKPGEKIEITIEGADEVKITIFVNGKKKEITVKAGEKIEIELPEDVKEVYIIIKDKNGKEKIIKLSA [r9_143_TrROS_Hall] | 3.73 ± 0.12 kcal/mol | 4.06 ± 0.098 kcal/mol | 2.03 ± 0.084 kcal/mol
7 | MEELVEKAKAEGYEYEVRPVEVGSLEEAKKLAEELEERNNAKVVLVFDPATGLPVELVIIKPGKKSKKIPGS [r1_179_JUSTAS] | 2 ± 0.09 kcal/mol | 2.56 ± 0.056 kcal/mol | -0.58 ± 0.22 kcal/mol

Numbers 3 through 4 from above:
Row | Sequence | folding stability dG unfold [1] | folding stability dG unfold [2] | folding stability dG unfold [3]
3 | SAGGSAGGSAGSTVVTEVEVSEELPEGEVIPTTITTETLPTGKVVRVTTPDGTVVSTSSVSAGGSAGGSAGG [r17_274_JUSTAS] | 1.02 ± 0.11 kcal/mol | 1.41 ± 0.1 kcal/mol | -0.702 ± 0.17 kcal/mol
4 | SAGGSAGGSAGEAVLVSTPDGRLVLLVRFPDYVLAVVFDPGGRPRLYRIDPKTGRVELLPSAGGSAGGSAGG [r11_590_TrMRF] | 3.99 ± 0.06 kcal/mol | 4.395 ± 0.036 kcal/mol | 2.18 ± 0.045 kcal/mol
